Assay results taken from patent US5643604A, “Parenteral dosage form” (Aplicaciones Farmaceuticas S.A. De C.V., priority 1990, dated 1997).

What was measured:
[1] = Comparative infrared spectrophotometry (FT-IR, with HPLC diode-array) before and after formation of microspheres; type: physicochemical; conditions: after the formation of microspheres; potassium bromide dispersion
Excerpt: (§1) It is necessary to check that no chemical damage of the substances occurs during the spray-freezing process, which could modify their therapeutic properties. The starting materials (crystals) and the microspheres obtained by spray-freezing are compared by UV and IR spectrophotometry. UV spectras shall always be superimposable and IR spectras shall correspond. If differences in infrared spectras appear, it shall be checked if they are due to a polymorphism phenomenon, by means of an HPLC setup with diode-array detection. Differential thermal analysis is also used, not only to check the melting points, but also to determine if endothermic or exothermic transitions occur, due either to structure modifications or to a polymorphism, which may influence the microsphere information process, or due to heat-induced chemical reactions.
Equipment used in infrared spectrophotometry: Nicolet 205 FT-IR. Dispersion medium: potassium bromide. Chromatography: HPLC device with photo diode-array detector, model Waters 990 and Nec powermate 2 workstation.

[2] = Comparative UV spectrophotometric analysis before and after formation of microspheres; type: physicochemical; conditions: starting materials (crystals) vs microspheres obtained by spray-freezing; ethanol for 17-beta-estradiol and cholesterol, 0.1N HCl for the others
Excerpt: as §1
Equipment used in ultraviolet spectrography: Hewlett Packard model 8452A with photodiode arrangement and quartz cell with a beam of 0.1 cm.

[3] = general statement, no test described; cited from earlier work

CN1C(=O)CN=C(c2ccccc2)c2cc(Cl)ccc21 [diazepam]
chemical modification by infrared spectrophotometry [1]: no modification | chemical modification by UV spectrophotometry [2]: no trace of modification

CN1CC[C@]23c4c5ccc(O)c4O[C@H]2[C@@H](O)C=C[C@H]3[C@H]1C5 [morphine basic]
temperature of physical and chemical instability [3]: ~200 °C
